Data as given in PubChem BioAssay AID652243 (Drosophila RNAi Screening Center, 2013)

Assay: 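Fly regulators of androgen-dependent reporter output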 (primary screen)
Cell system: Drosophila S2R+ cells
Knock-down reagent: long dsRNA against Drosophila genes
Duration: 72 h (48 h, then 24 h hormone)
Treatment: synthetic androgen R1881 at 10 nM for 24 h
Measurement: 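Firefly light from an androgen-responsive reporter and Renilla control light per well, raw and unnormalised, for each of two replicates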
Reading the numbers: firefly reporter light: higher = more light from androgen-responsive reporter; Renilla control light: higher = more constitutive control signal (cell number, transfection)
Rule for the call: 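Hit when the log firefly-to-Renilla ratio dropped or increased by a fixed fold versus the mean of GFP or LacZ controls across duplicate plates; lowering cut given as 1.5 and as 3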
Meaning of the calls: active = hit: reporter lowered or raised; inactive = no hit
The deposit covers about 24,000 reagents; below is an unselected part of those that have a named target and a result. In the full data, 246 (1%) are marked active. 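Plates not normalised; calls are printed but the firefly/Renilla ratio behind them is not deposited; fold cut for lowering reported inconsistently.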 Raw values are not corrected between plates. Names joined by + are all predicted targets of the reagent. Not given: the amount of reagent.

The opening 3 records, to show the layout:
{"gene knocked down": "CG13177", "dsRNA": "DRSC06303", "firefly reporter light, replicate 1": 3.07e5, "firefly reporter light, replicate 2": 3.22e5, "Renilla control light, replicate 1": 1.95e6, "Renilla control light, replicate 2": 2.36e6, "outcome": "inactive"}
{"gene knocked down": "CG10265", "dsRNA": "DRSC05986", "firefly reporter light, replicate 1": 1.18e6, "firefly reporter light, replicate 2": 9.44e5, "Renilla control light, replicate 1": 2.59e6, "Renilla control light, replicate 2": 2.48e6, "outcome": "inactive"}
{"gene knocked down": "CG10265", "dsRNA": "DRSC21680", "firefly reporter light, replicate 1": 7.12e5, "firefly reporter light, replicate 2": 5.70e5, "Renilla control light, replicate 1": 3.00e6, "Renilla control light, replicate 2": 2.05e6, "outcome": "inactive"}

Results, from the start:
{"gene knocked down": "CG13177", "dsRNA": "DRSC06303", "firefly reporter light, replicate 1": 3.07e5, "firefly reporter light, replicate 2": 3.22e5, "Renilla control light, replicate 1": 1.95e6, "Renilla control light, replicate 2": 2.36e6, "outcome": "inactive"}
{"gene knocked down": "CG10265", "dsRNA": "DRSC05986", "firefly reporter light, replicate 1": 1.18e6, "firefly reporter light, replicate 2": 9.44e5, "Renilla control light, replicate 1": 2.59e6, "Renilla control light, replicate 2": 2.48e6, "outcome": "inactive"}
{"gene knocked down": "CG10265", "dsRNA": "DRSC21680", "firefly reporter light, replicate 1": 7.12e5, "firefly reporter light, replicate 2": 5.70e5, "Renilla control light, replicate 1": 3.00e6, "Renilla control light, replicate 2": 2.05e6, "outcome": "inactive"}
{"gene knocked down": "nbs", "dsRNA": "DRSC11373", "firefly reporter light, replicate 1": 2.26e5, "firefly reporter light, replicate 2": 2.41e5, "Renilla control light, replicate 1": 2.23e6, "Renilla control light, replicate 2": 2.48e6, "outcome": "inactive"}
{"gene knocked down": "nbs", "dsRNA": "DRSC23793", "firefly reporter light, replicate 1": 4.13e5, "firefly reporter light, replicate 2": 3.44e5, "Renilla control light, replicate 1": 4.71e5, "Renilla control light, replicate 2": 4.22e5, "outcome": "inactive"}
{"gene knocked down": "RIOK1", "dsRNA": "DRSC09853", "firefly reporter light, replicate 1": 8.72e5, "firefly reporter light, replicate 2": 7.49e5, "Renilla control light, replicate 1": 2.12e6, "Renilla control light, replicate 2": 2.60e6, "outcome": "inactive"}
{"gene knocked down": "RIOK1", "dsRNA": "DRSC36896", "outcome": "inactive"}
{"gene knocked down": "RIOK1", "dsRNA": "DRSC36897", "outcome": "inactive"}
{"gene knocked down": "Cdc5", "dsRNA": "DRSC08577", "firefly reporter light, replicate 1": 9.10e5, "firefly reporter light, replicate 2": 8.44e5, "Renilla control light, replicate 1": 1.72e6, "Renilla control light, replicate 2": 1.55e6, "outcome": "inactive"}
{"gene knocked down": "Spn77Ba", "dsRNA": "DRSC10693", "firefly reporter light, replicate 1": 13463, "firefly reporter light, replicate 2": 37096, "Renilla control light, replicate 1": 2.31e5, "Renilla control light, replicate 2": 2.51e5, "outcome": "inactive"}
{"gene knocked down": "Cpr49Ac", "dsRNA": "DRSC07199", "firefly reporter light, replicate 1": 8.24e5, "firefly reporter light, replicate 2": 6.21e5, "Renilla control light, replicate 1": 2.46e6, "Renilla control light, replicate 2": 1.96e6, "outcome": "inactive"}
{"gene knocked down": "CG14561", "dsRNA": "DRSC11722", "firefly reporter light, replicate 1": 58273, "firefly reporter light, replicate 2": 60797, "Renilla control light, replicate 1": 9.61e5, "Renilla control light, replicate 2": 9.14e5, "outcome": "inactive"}
{"gene knocked down": "chk", "dsRNA": "DRSC04994", "firefly reporter light, replicate 1": 8.43e5, "firefly reporter light, replicate 2": 9.07e5, "Renilla control light, replicate 1": 1.17e6, "Renilla control light, replicate 2": 1.34e6, "outcome": "inactive"}
{"gene knocked down": "BG642167", "dsRNA": "DRSC38707", "firefly reporter light, replicate 1": 1.11e6, "firefly reporter light, replicate 2": 9.67e5, "Renilla control light, replicate 1": 1.78e6, "Renilla control light, replicate 2": 2.18e6, "outcome": "inactive"}
{"gene knocked down": "CG8100", "dsRNA": "DRSC10961", "firefly reporter light, replicate 1": 1.73e5, "firefly reporter light, replicate 2": 1.74e5, "Renilla control light, replicate 1": 1.58e6, "Renilla control light, replicate 2": 1.30e6, "outcome": "inactive"}
{"gene knocked down": "hbt + CG43779", "dsRNA": "DRSC23270", "firefly reporter light, replicate 1": 7.70e5, "firefly reporter light, replicate 2": 6.70e5, "Renilla control light, replicate 1": 1.52e6, "Renilla control light, replicate 2": 1.30e6, "outcome": "inactive"}
{"gene knocked down": "Hexo2", "dsRNA": "DRSC18671", "firefly reporter light, replicate 1": 5.15e5, "firefly reporter light, replicate 2": 5.33e5, "Renilla control light, replicate 1": 3.44e6, "Renilla control light, replicate 2": 4.33e6, "outcome": "inactive"}
{"gene knocked down": "CG14089", "dsRNA": "DRSC10093", "firefly reporter light, replicate 1": 2.28e5, "firefly reporter light, replicate 2": 2.08e5, "Renilla control light, replicate 1": 2.71e6, "Renilla control light, replicate 2": 2.04e6, "outcome": "inactive"}
{"gene knocked down": "CG14089", "dsRNA": "DRSC24848", "firefly reporter light, replicate 1": 7.64e5, "firefly reporter light, replicate 2": 9.56e5, "Renilla control light, replicate 1": 9.97e5, "Renilla control light, replicate 2": 8.24e5, "outcome": "inactive"}
{"gene knocked down": "Tgi", "dsRNA": "DRSC09793", "firefly reporter light, replicate 1": 2.49e5, "firefly reporter light, replicate 2": 1.83e5, "Renilla control light, replicate 1": 1.92e6, "Renilla control light, replicate 2": 1.70e6, "outcome": "inactive"}
{"gene knocked down": "Tgi", "dsRNA": "DRSC09794", "firefly reporter light, replicate 1": 2.23e5, "firefly reporter light, replicate 2": 2.22e5, "Renilla control light, replicate 1": 2.69e6, "Renilla control light, replicate 2": 2.30e6, "outcome": "inactive"}
{"gene knocked down": "Tgi", "dsRNA": "DRSC25518", "firefly reporter light, replicate 1": 7.74e5, "firefly reporter light, replicate 2": 7.25e5, "Renilla control light, replicate 1": 5.01e5, "Renilla control light, replicate 2": 6.18e5, "outcome": "inactive"}
{"gene knocked down": "CG1695", "dsRNA": "DRSC20538", "firefly reporter light, replicate 1": 2.63e5, "firefly reporter light, replicate 2": 1.38e5, "Renilla control light, replicate 1": 5.49e5, "Renilla control light, replicate 2": 3.01e5, "outcome": "inactive"}
{"gene knocked down": "CG1695", "dsRNA": "DRSC25561", "firefly reporter light, replicate 1": 8.95e5, "firefly reporter light, replicate 2": 1.02e6, "Renilla control light, replicate 1": 9.26e5, "Renilla control light, replicate 2": 9.75e5, "outcome": "inactive"}
{"gene knocked down": "CG18178", "dsRNA": "DRSC10302", "firefly reporter light, replicate 1": 4.47e5, "firefly reporter light, replicate 2": 4.31e5, "Renilla control light, replicate 1": 5.45e5, "Renilla control light, replicate 2": 6.49e5, "outcome": "inactive"}
{"gene knocked down": "CG30380", "dsRNA": "DRSC05069", "firefly reporter light, replicate 1": 1.57e5, "firefly reporter light, replicate 2": 2.08e5, "Renilla control light, replicate 1": 3.26e5, "Renilla control light, replicate 2": 3.27e5, "outcome": "inactive"}
{"gene knocked down": "CG8195", "dsRNA": "DRSC07103", "firefly reporter light, replicate 1": 1.10e6, "firefly reporter light, replicate 2": 1.04e6, "Renilla control light, replicate 1": 2.46e6, "Renilla control light, replicate 2": 2.31e6, "outcome": "inactive"}
